Record: PubChem BioAssay AID1259308 (NCATS, 2017)
Here is an unselected part of about 59,000 reagents. In the full data, about 1,510 (2.6%) were called active. 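Calls use total luciferase alone and ignore viability, so some active siRNAs may act by altering cell number.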 Reagents against one gene are numbered here. Reagent sequences are not shown.

Assay: 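Knock-downs that increase output of a recombinant reporter protein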 (primary screen)
Cell system: human HEK293 embryonic kidney cells stably expressing firefly luciferase (HEK-CMV-Luc2-Hygro)
Knock-down reagent: single siRNA against human genes, 0.8 pmol siRNA per well
Duration: 72 h
Detection: 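Reporter luminescence and viable-cell signal on separate replicate plates, given as percent of non-targeting control and median/MAD z-scores, plus per-cell luciferase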
Reading the numbers: total luciferase, z-score and total luciferase, % of control: higher = more reporter protein produced; luciferase per cell, z-score: higher = more reporter output per viable cell; viable cells, % of control: higher = more viable cells
Call rule: 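An siRNA counts as active if its total luciferase robust z-score exceeds 3; genes with two or more such siRNAs out of three were retested with fresh siRNAs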
Calls: active = raised luciferase; inactive = no rise

gene knocked down	reagent no.	total luciferase, z-score	total luciferase, % of control	luciferase per cell, z-score	viable cells, % of control	Outcome
CYB5D2 (cytochrome b5 domain containing 2)	1	0.695	95.7	0.422	95.7	inactive
CYB5D2 (cytochrome b5 domain containing 2)	2	-1.81	45.8	-2.08	88.6	inactive
CYB5D2 (cytochrome b5 domain containing 2)	3	1.45	111	1.33	87.3	inactive
AMH (anti-Mullerian hormone)	1	0.0745	83.4	-0.105	95.8	inactive
AMH (anti-Mullerian hormone)	2	-0.413	73.7	-0.426	92.1	inactive
AMH (anti-Mullerian hormone)	3	1.08	103	0.632	97.8	inactive
TM4SF18 (transmembrane 4 L six family member 18)	1	2.23	126	1.4	97.6	inactive
TM4SF18 (transmembrane 4 L six family member 18)	2	-0.371	74.5	-0.614	97.9	inactive
TM4SF18 (transmembrane 4 L six family member 18)	3	0.0954	83.8	1.04	71.3	inactive
KLHDC7A (kelch domain containing 7A)	1	-0.559	70.8	-0.0485	80.1	inactive
KLHDC7A (kelch domain containing 7A)	2	2.72	136	3.02	68.7	inactive
KLHDC7A (kelch domain containing 7A)	3	1.38	109	2.09	70.5	inactive
TYMP (thymidine phosphorylase)	1	-0.302	75.9	-0.667	101	inactive
TYMP (thymidine phosphorylase)	2	-0.509	71.8	-1.26	112	inactive
TYMP (thymidine phosphorylase)	3	0.275	87.4	-0.24	104	inactive
ALG1L2	1	0.511	92.1	0.348	93.9	inactive
ALG1L2	2	0.0749	83.4	0.342	85.1	inactive
ALG1L2	3	2.53	132	2.07	85.6	inactive
ATXN2 (ataxin 2)	1	0.313	88.1	-0.339	108	inactive
ATXN2 (ataxin 2)	2	0.895	99.7	0.557	96.2	inactive
ATXN2 (ataxin 2)	3	1.43	110	1.03	94	inactive
HDGF (heparin binding growth factor)	1	-0.776	66.4	-0.515	85	inactive
HDGF (heparin binding growth factor)	2	-0.0643	80.6	1.55	59.9	inactive
HDGF (heparin binding growth factor)	3	-1.9	44.1	-2.52	95.8	inactive

Quoted from above for reference:
gene knocked down	reagent no.	total luciferase, z-score	total luciferase, % of control	luciferase per cell, z-score	viable cells, % of control	Outcome
CYB5D2 (cytochrome b5 domain containing 2)	1	0.695	95.7	0.422	95.7	inactive
CYB5D2 (cytochrome b5 domain containing 2)	2	-1.81	45.8	-2.08	88.6	inactive
